Laboratory results as given in article PMC6008442.
No constants are given. Whether binding was seen depends on the method and setting. In cells and extracts the contact can be indirect. Some entries that bind do so weakly or less than the wild type.

Sequences of proteins named here, by UniProt entry; tags and fusion partners are left off. Residues count along the entry.
UniProt Q60751, residues 31-1373: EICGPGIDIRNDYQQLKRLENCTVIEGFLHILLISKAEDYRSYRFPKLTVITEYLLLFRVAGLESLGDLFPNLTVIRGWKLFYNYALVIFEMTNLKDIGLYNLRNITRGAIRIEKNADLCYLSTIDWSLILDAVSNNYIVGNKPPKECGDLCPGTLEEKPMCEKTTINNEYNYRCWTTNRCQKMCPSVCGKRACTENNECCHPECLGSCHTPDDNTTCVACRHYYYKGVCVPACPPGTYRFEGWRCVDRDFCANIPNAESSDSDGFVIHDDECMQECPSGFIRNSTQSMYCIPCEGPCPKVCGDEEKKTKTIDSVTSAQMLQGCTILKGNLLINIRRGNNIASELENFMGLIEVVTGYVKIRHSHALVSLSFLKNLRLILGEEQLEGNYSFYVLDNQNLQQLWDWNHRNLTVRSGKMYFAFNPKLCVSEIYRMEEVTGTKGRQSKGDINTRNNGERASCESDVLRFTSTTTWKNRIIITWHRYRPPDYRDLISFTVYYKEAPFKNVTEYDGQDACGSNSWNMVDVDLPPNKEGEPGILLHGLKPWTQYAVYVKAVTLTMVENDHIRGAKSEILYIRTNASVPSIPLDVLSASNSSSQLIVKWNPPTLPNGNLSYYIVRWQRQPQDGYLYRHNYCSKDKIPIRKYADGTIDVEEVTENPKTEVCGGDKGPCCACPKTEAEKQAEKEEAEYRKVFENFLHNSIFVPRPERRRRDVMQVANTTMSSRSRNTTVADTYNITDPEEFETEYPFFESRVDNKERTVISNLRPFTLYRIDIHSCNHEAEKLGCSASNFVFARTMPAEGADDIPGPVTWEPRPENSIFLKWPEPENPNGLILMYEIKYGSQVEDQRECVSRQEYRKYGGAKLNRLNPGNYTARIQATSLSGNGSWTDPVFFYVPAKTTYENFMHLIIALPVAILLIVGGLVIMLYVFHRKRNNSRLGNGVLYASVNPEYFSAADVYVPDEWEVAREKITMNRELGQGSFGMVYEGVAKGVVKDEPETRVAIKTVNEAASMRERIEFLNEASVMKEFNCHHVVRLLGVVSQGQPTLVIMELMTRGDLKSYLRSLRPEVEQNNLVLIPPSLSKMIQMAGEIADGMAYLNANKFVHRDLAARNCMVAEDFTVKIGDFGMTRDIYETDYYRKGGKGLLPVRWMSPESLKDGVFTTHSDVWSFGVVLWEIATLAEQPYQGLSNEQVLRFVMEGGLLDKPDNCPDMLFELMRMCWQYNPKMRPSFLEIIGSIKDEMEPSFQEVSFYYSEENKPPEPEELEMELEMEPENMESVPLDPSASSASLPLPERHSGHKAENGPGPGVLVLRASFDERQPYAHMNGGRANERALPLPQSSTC
UniProt P15208, residues 28-1372: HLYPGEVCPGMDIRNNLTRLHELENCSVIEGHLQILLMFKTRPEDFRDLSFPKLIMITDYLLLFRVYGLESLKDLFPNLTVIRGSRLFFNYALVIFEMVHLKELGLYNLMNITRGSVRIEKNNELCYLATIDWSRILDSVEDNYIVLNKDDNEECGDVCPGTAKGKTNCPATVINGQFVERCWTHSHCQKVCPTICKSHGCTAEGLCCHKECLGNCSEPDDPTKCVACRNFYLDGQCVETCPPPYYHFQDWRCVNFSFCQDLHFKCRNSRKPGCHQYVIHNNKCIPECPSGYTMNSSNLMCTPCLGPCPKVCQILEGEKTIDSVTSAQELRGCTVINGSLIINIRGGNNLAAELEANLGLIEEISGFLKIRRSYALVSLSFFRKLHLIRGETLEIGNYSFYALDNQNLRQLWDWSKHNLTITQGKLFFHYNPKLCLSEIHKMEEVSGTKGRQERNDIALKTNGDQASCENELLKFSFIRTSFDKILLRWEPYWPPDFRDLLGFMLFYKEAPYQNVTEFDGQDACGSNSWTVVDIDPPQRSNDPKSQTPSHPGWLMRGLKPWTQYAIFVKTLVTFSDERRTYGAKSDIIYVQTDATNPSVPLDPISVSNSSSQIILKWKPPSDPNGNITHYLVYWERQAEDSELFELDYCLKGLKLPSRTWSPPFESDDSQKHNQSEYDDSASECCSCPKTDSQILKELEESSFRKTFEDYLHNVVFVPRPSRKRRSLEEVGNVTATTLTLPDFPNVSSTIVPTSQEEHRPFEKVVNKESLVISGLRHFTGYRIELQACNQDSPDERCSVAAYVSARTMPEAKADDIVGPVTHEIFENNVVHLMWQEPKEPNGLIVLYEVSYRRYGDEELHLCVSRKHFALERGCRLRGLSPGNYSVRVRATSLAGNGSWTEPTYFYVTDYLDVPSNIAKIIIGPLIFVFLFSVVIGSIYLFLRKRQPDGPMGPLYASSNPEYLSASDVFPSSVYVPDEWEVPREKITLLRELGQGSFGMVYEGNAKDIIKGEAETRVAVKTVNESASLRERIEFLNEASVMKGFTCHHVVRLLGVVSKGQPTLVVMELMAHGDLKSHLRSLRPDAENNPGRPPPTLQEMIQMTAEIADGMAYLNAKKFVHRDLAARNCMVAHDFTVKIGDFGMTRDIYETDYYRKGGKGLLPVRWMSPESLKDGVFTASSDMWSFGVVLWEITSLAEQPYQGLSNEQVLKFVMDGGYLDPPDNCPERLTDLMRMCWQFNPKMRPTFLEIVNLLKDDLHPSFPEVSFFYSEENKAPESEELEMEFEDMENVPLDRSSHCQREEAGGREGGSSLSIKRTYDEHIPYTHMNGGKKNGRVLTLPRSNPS

Molecular target: IGF-1 receptor (IGF-1R), endogenous in NIH-3T3 cells (mouse (endogenous in NIH-3T3)) (UniProt Q60751)
Assay: co-IP; IGF-1R immunoprecipitated (anti-IGF-1R #9750, Catch and Release kit) from 250 µg NIH-3T3 protein in non-denaturing buffer; blotted for InsR pTyr1334 and InsRβ; cells treated with vehicle or L2-Cmu (100 µg/mL), then media or IGF-1 (5 nM) for 2 min

binding: binds
Substance: insulin receptor (InsR), endogenous in NIH-3T3 cells (from UniProt P15208 28-1372)
